Assay results as given in the supplement of paper PMC10331698.
± gives the standard deviation of the averaged measurements. Small differences around the control level are noise.

What was measured:
Assay in all cases: level (log10 ratio to DMSO vehicle control); higher = higher biomarker level / cell amount than vehicle control
[1] = compound: O=S(=O)(O)C(F)(F)C(F)(F)C(F)(F)C(F)(F)C(F)(F)C(F)(F)C(F)(F)C(F)(F)F [Potassium perfluorooctanesulfonate]; settings: 2200 nM; in DMSO
Protocol: (§1)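 BioMAP Diversity Plus panel of 12 human primary cell co-culture systems (3C, 4H, LPS, SAg, BT, BF4T, BE3C, CASM3C, HDF3CGF, KF3CT, MyoF, Mphg). Compounds were added 1 h before stimulation and left for 24 h (MyoF 48 h; BT 72 h for soluble read-outs or 6 d for IgG). Biomarkers were read by ELISA, cytotoxicity by SRB, PBMC viability and proliferation by Alamar Blue. Each well value was divided by the mean of 8 DMSO control wells on the same plate and log10 transformed; duplicate blinded samples were tested at 4 concentrations.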

[2] = compound: O=S(=O)(F)C(F)(F)C(F)(F)C(F)(F)C(F)(F)C(F)(F)C(F)(F)C(F)(F)C(F)(F)F [Perfluorooctanesulfonyl fluoride]; settings: 2200 nM; in DMSO
Protocol: as §1

[3] = compound: FC(F)(F)C(F)(F)C(F)(F)CC1CO1 [1H,1H-Heptafluorobutyl epoxide]; settings: 2200 nM; in DMSO
Protocol: as §1

[4] = compound: O=C(O)C(F)(F)C(F)(F)C(F)F [4H-Perfluorobutanoic acid]; settings: in DMSO
Protocol: as §1

[5] = compound: OCC(F)(F)C(F)(F)C(F)(F)C(F)(F)C(F)(F)C(F)F [1H,1H,7H-Dodecafluoro-1-heptanol]; settings: 2200 nM; in DMSO
Protocol: as §1

[6] = compound: C=CC(=O)OCC(F)(F)C(F)(F)C(F)(F)C(F)(F)C(F)(F)C(F)(F)C(F)(F)F [1H,1H-Perfluorooctyl acrylate]; settings: 2200 nM; in DMSO
Protocol: as §1

[7] = compound: C=CC(F)(F)C(F)(F)C(F)(F)C(F)(F)C(F)(F)C(F)(F)C(F)(F)C(F)(F)C=C [1,8-Divinylperfluorooctane]; settings: in DMSO
Protocol: as §1

[8] = compound: OCCCCC(F)(F)C(F)(F)C(F)(F)C(F)(F)F [4:4 Fluorotelomer alcohol]; settings: 2200 nM; in DMSO
Protocol: as §1

[9] = compound: CO[Si](C)(CCC(F)(F)C(F)(F)C(F)(F)C(F)(F)C(F)(F)C(F)(F)F)OC [Dimethoxymethyl((perfluorohexyl)ethyl)silane]; settings: in DMSO
Protocol: as §1

Heptafluorobutyl iodide = compound: FC(F)(F)C(F)(F)C(F)(F)CI [Heptafluorobutyl iodide]; settings: 2200 nM; in DMSO
Protocol: as §1

[10] = compound: O=S(=O)(OCC(F)(F)F)C(F)(F)C(F)(F)C(F)(F)C(F)(F)F [2,2,2-Trifluoroethyl perfluorobutanesulfonate]; settings: 2200 nM; in DMSO
Protocol: as §1

[11] = compound: NS(=O)(=O)C(F)(F)C(F)(F)C(F)(F)C(F)(F)C(F)(F)C(F)(F)C(F)(F)C(F)(F)F [Perfluorooctanesulfonamide]; settings: in DMSO
Protocol: as §1

[12] = compound: C=C(C)C(=O)OCC(F)(F)C(F)(F)C(F)(F)C(F)(F)C(F)(F)C(F)(F)C(F)(F)F; settings: in DMSO
Protocol: as §1

[13] = compound: O=P(O)(O)CCC(F)(F)C(F)(F)C(F)(F)C(F)(F)C(F)(F)C(F)(F)F [2-(Perfluorohexyl)ethylphosphonic acid]; settings: 2200 nM; in DMSO
Protocol: as §1

[14] = compound: COC(=O)C(F)(F)C(F)(F)OC(F)(C(F)(F)F)C(F)(F)OC(F)=C(F)F [Methyl perfluoro(3-(1-ethenyloxypropan-2-yloxy)propanoate)]; settings: in DMSO
Protocol: as §1

Pentafluoropropionamide = compound: NC(=O)C(F)(F)C(F)(F)F [Pentafluoropropionamide]; settings: 2200 nM; in DMSO
Protocol: as §1

[15] = compound: O=S(=O)(O)C(F)(F)C(F)(F)C(F)(F)C(F)(F)C(F)(F)C(F)(F)C(F)(F)C(F)(F)F [Perfluorooctanesulfonic acid]; settings: 2200 nM; in DMSO
Protocol: as §1

[16] = compound: NC(=O)C(F)(F)C(F)(F)C(F)(F)C(F)F; settings: in DMSO
Protocol: as §1

Row | Test System | level (log10) [1] | level (log10) [2] | level (log10) [3] | level (log10) ([4]; 2200 nM) | level (log10) ([4]; 6700 nM) | level (log10) ([4]; 20000 nM) | level (log10) ([4]; 60000 nM) | level (log10) [5] | level (log10) [6] | level (log10) ([7]; 740 nM) | level (log10) ([7]; 2200 nM) | level (log10) [8] | level (log10) ([9]; 740 nM) | level (log10) ([9]; 2200 nM) | level (log10) (Heptafluorobutyl iodide) | level (log10) [10] | level (log10) ([11]; 2200 nM) | level (log10) ([11]; 6700 nM) | level (log10) ([11]; 20000 nM) | level (log10) ([12]; 740 nM) | level (log10) ([12]; 2200 nM) | level (log10) [13] | level (log10) ([14]; 740 nM) | level (log10) ([14]; 2200 nM) | level (log10) (Pentafluoropropionamide) | level (log10) [15] | level (log10) ([16]; 2200 nM) | level (log10) ([16]; 6700 nM) | level (log10) ([16]; 20000 nM) | level (log10) ([16]; 60000 nM)
1 | lMphg:SRB-Mphg | 0.019 ± 0.0057 | 0.0005 ± 0.03 | -0.003 | 0.001 ± 0.071 | -0.009 ± 0.075 | -0.015 ± 0.054 | 0 ± 0.027 | -0.019 ± 0.092 | 0.014 ± 0.018 | 0.021 ± 0.011 | 0.018 ± 0.0014 | 0.001 ± 0.023 | 0.0445 ± 0.026 | 0.008 | 0.005 ± 0.024 | -0.0035 ± 0.0021 | -0.0045 ± 0.012 | -0.0005 ± 0.0064 | -0.027 ± 0.016 | 0.056 ± 0.055 | 0.064 ± 0.017 | 0.012 ± 0.028 | 0.012 ± 0.016 | 0.0005 ± 0.00071 | 0.0405 ± 0.0035 | 0.007 ± 0.016 | 0.012 ± 0.02 | 0.0005 ± 0.013 | -0.0045 ± 0.015 | 0.013 ± 0.027
2 | LPS:CXCL8/IL-8 | 0.002 ± 0.072 | 0.0165 ± 0.022 | -0.007 ± 0.014 | -0.011 ± 0.028 | -0.0155 ± 0.019 | -0.008 ± 0.02 | 0.018 ± 0.024 | 0.0005 ± 0.046 | 0.0265 ± 0.026 | 0.0135 ± 0.018 | -0.0015 ± 0.018 | 0.036 ± 0.028 | 0.021 ± 0.044 | 0.0225 ± 0.016 | 0.0265 ± 0.094 | 0.0045 ± 0.023 | -0.001 ± 0.011 | 0.005 ± 0.016 | -0.008 ± 0.0014 | 0.0025 ± 0.025 | -0.003 ± 0.024 | 0.0145 ± 0.077 | 0.006 ± 0.0099 | 0.018 ± 0.0085 | 0.0075 ± 0.015 | 0.0185 ± 0.022 | 0.011 ± 0.021 | -0.0055 ± 0.0035 | -0.0025 ± 0.035 | 0.016 ± 0.12
3 | lMphg:IL-1alpha | -0.0105 ± 0.021 | -0.0005 ± 0.021 | 0.0015 ± 0.03 | -0.035 ± 0.04 | -0.0055 ± 0.0064 | -0.0355 ± 0.0064 | 0.017 ± 0.035 | 0.0165 ± 0.016 | 0.013 ± 0.03 | 0.035 ± 0.069 | -0.028 ± 0.011 | 0.002 ± 0.0085 | 0.006 ± 0.092 | -0.0275 ± 0.005 | 0.0135 ± 0.06 | 0.0095 ± 0.0035 | 0.006 ± 0.044 | 0.053 ± 0.05 | 0.228 ± 0.028 | 0.0415 ± 0.028 | -0.024 ± 0.065 | -0.016 ± 0.051 | 0.0305 ± 0.026 | 0.0415 ± 0.029 | 0.032 ± 0.078 | -0.0255 ± 0.013 | 0.0345 ± 0.0078 | -0.0425 ± 0.023 | -0.0465 ± 0.00071 | 0.0365 ± 0.047
4 | SAg:CD69 | -0.0525 ± 0.079 | -0.008 ± 0.011 | 0.0335 ± 0.042 | -0.0145 ± 0.0021 | -0.0145 ± 0.015 | -0.0165 ± 0.015 | 0.005 ± 0.027 | 0.0235 ± 0.0064 | -0.01 | -0.0145 ± 0.018 | -0.0205 ± 0.032 | 0.005 ± 0.0057 | -0.0025 ± 0.0064 | -0.0225 ± 0.028 | -0.0615 ± 0.03 | -0.0105 ± 0.0064 | 0.014 ± 0.024 | -0.0205 ± 0.06 | -0.119 ± 0.064 | 0.008 ± 0.035 | 0.0025 ± 0.032 | -0.002 ± 0.031 | -0.0215 ± 0.0064 | -0.049 ± 0.0057 | -0.018 ± 0.018 | -0.017 ± 0.014 | 0.0275 ± 0.00071 | 0.025 ± 0.0085 | 0.0175 ± 0.005 | 0.0495 ± 0.026
5 | CASM3C:PAI-I | 0.0165 ± 0.019 | 0.0015 ± 0.015 | -0.0045 ± 0.0035 | 0.015 ± 0.0057 | 0.009 ± 0.0071 | 0.006 ± 0.0071 | 0.0075 ± 0.0021 | 0.013 ± 0.0099 | 0 ± 0.013 | 0.0005 ± 0.0021 | 0 ± 0.0085 | 0.0165 ± 0.00071 | 0.0115 ± 0.029 | -0.012 ± 0.0057 | -0.01 ± 0.0057 | -0.0015 ± 0.0035 | 0.003 ± 0.0071 | 0.012 ± 0.0057 | 0.0055 ± 0.011 | -0.0025 ± 0.0035 | -0.0155 ± 0.0064 | 0.0005 ± 0.0078 | -0.003 ± 0.0057 | -0.003 ± 0.0099 | -0.0065 ± 0.016 | 0.0075 ± 0.012 | -0.004 ± 0.024 | -0.005 ± 0.021 | -0.003 ± 0.0085 | -0.008 ± 0.0099
6 | BE3C:CXCL11/I-TAC | -0.0165 ± 0.00071 | 0.0095 ± 0.005 | -0.0145 ± 0.0021 | 0.01 ± 0.0057 | -0.0015 ± 0.0064 | 0.008 ± 0.014 | 0.031 ± 0.011 | 0.011 ± 0.034 | 0.024 ± 0.018 | -0.0045 ± 0.0035 | -0.0045 ± 0.0092 | -0.006 ± 0.02 | 0.0015 ± 0.019 | -0.007 ± 0.0042 | 0.011 ± 0.017 | -0.002 | -0.02 ± 0.011 | -0.0565 ± 0.013 | -0.183 ± 0.06 | 0.001 ± 0.0014 | 0.0025 ± 0.029 | 0.004 ± 0.027 | 0.0305 ± 0.012 | 0.004 ± 0.013 | 0.003 ± 0.0099 | -0.0195 ± 0.005 | 0 ± 0.014 | 0.005 ± 0.0028 | -0.002 ± 0.0042 | 0.002 ± 0.0057
7 | HDF3CGF:CXCL11/I-TAC | -0.0005 ± 0.0078 | -0.018 | -0.01 ± 0.017 | -0.006 ± 0.035 | -0.0155 ± 0.071 | 0.003 ± 0.0071 | 0.0125 ± 0.0035 | 0.0065 ± 0.042 | -0.012 ± 0.058 | -0.02 ± 0.014 | -0.0105 ± 0.012 | 0.0085 ± 0.023 | -0.026 ± 0.055 | -0.006 ± 0.035 | -0.0565 ± 0.083 | 0.0085 ± 0.022 | -0.079 ± 0.0028 | -0.111 ± 0.013 | -0.492 ± 0.028 | -0.031 ± 0.013 | 0.0055 ± 0.011 | 0.0045 ± 0.03 | -0.004 ± 0.0014 | -0.055 ± 0.0028 | -0.006 ± 0.018 | -0.01 ± 0.0085 | -0.0115 ± 0.023 | -0.0035 ± 0.016 | -0.002 ± 0.013 | -0.002 ± 0.027
